According to patent publication KR20210090503A:
Changes are numbered by the printed parent chain. No constants are given. Whether binding was seen depends on the method and setting. Some results given as binding are weak or reduced against the parent protein; the word gives no strength. Values belong to the binder of their own block, whether it stands above or below them.

Sequences of proteins named here, by UniProt entry; tags and fusion partners are left off. Residues count along the entry.
UniProt P37173, residues 23-166: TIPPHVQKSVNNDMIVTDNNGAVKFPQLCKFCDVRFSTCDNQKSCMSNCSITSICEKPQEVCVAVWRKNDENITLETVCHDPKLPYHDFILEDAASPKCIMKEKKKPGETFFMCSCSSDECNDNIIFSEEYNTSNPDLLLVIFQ

Columns and labels:
[1] = biological target: hTGFβⅡECD/Fc (R&D systems, Cat. No. 341-BR-050) (human) (UniProt P37173); assay: monoclonal ELISA, periplasmic scFv on coated TGFβRII ECD/Fc, anti-HA-HRP
[2] = biological target: hTGFβⅡECD/Fc (R&D systems, Cat. No. 341-BR-050) (human) (UniProt P37173); assay: ELISA (legend of Fig. 6)
[3] = biological target: hTGFβⅡECD/Fc (R&D systems, Cat. No. 341-BR-050) (human) (UniProt P37173); assay: ELISA, purified scFv on coated TGFβRII ECD/Fc, anti-HA-HRP (Fig. 6)
[4] = biological target: hTGFβⅡECD/Fc (R&D systems, Cat. No. 341-BR-050) (human) (UniProt P37173); assay: ELISA, purified scFv on coated TGFβRII ECD/Fc, anti-HA-HRP (Fig. 4)
[5] = biological target: hTGFβⅡECD/Fc (R&D systems, Cat. No. 341-BR-050) (human) (UniProt P37173); assay: competition ELISA, TGFβ ligand coated, scFv with TGFβRII ECD/Fc (Fig. 5)

binding [1]: binds
binding [2]: binds
binding [3]: binds
binding [4]: binds
binding [5]: binds
B1: TBR2-3 scFv (scFv, not shown: small tags and cut ends)
scFv: EVQLLESGGGLVQPGGPLRLSCAASGFTFSDYSMSWVRQAPGKGLEWVSSIYYDSGSIYYADSVKGRFTISRDNSKNTLYLQMNSLRAEDTAVYYCARRVTAFDYWGQGTLVTVSSGGGGSGGGGSGGGGSQSVLTQPPSASGTPGQRVTISCTGSSSNIGNNSVSWYQQLPGTAPKLLIYANSHRPSGVPDRFSGSKSGTSASLAISGLRSEDEADYYCGTWDSSLSGYVFGGGTKLTVLG

binding [1]: binds
binding [2]: binds
binding [4]: binds
binding [5]: binds
B2: TBR2-1 scFv (scFv, not shown: small tags and cut ends)
scFv: EVQLLESGGGLVQPGGSLRLSCAASGFTFSSYSMSWVRQAPGKGLEWVSWISYNGGSKYYADSVKGRFTISRDNSKNTLYLQMNSLRAEDTAVYYCARRIAAFDYWGQGTLVTVSSGGGGSGGGGSGGGGSQSVLTQPPSASGTPGQRVTISCTGSSSNIGSNAVSWYQQLPGTAPKLLIYANSHRPSGVPDRFSGSKSGTSASLAISGLRSEDEADYYCGTWDSSLSGYVFGGGTKLTVLG

binding [1]: binds
binding [2]: binds
binding [3]: binds
binding [4]: binds
binding [5]: binds
B3: TBR2-2 scFv (scFv, not shown: small tags and cut ends)
scFv: B2 scFv with G55D, G56R, K58V
